Data published in the supplement of paper PMC10849652.
This is one part of the list.

Chains of the proteins cited; added tags and fusions are not shown. Lines headed by an entry give the natural chain unless they say otherwise; changes in a name come on top.
UniProt Q14249: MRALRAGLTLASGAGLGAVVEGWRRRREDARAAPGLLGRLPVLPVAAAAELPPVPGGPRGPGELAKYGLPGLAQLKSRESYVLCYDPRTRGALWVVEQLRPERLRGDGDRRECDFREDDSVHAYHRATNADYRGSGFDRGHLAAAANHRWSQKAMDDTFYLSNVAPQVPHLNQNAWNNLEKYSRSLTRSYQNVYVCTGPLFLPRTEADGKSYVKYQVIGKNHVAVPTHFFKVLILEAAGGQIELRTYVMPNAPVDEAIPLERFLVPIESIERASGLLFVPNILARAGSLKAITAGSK
UniProt Q14232, whole entry, looked up: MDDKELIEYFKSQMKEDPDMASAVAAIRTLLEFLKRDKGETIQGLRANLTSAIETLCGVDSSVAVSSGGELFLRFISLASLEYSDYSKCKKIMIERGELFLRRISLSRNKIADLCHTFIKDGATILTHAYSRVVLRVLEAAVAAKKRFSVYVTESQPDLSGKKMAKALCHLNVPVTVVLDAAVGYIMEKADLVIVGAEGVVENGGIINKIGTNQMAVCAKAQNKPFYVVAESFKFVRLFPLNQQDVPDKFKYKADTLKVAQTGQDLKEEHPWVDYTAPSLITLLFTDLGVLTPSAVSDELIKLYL
UniProt Q05639, whole entry, looked up: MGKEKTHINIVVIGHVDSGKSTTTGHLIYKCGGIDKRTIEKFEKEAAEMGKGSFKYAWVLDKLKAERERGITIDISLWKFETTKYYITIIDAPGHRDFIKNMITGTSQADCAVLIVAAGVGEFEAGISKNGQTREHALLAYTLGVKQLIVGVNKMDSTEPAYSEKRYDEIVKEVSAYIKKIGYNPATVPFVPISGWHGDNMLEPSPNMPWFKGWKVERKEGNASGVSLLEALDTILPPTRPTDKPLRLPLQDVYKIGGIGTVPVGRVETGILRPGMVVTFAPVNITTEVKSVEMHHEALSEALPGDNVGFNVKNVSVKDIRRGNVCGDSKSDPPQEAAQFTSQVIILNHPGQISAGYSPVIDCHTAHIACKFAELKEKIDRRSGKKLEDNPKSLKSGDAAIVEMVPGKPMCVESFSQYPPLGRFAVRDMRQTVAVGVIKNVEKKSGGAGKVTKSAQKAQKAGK
UniProt P09104, whole entry, looked up: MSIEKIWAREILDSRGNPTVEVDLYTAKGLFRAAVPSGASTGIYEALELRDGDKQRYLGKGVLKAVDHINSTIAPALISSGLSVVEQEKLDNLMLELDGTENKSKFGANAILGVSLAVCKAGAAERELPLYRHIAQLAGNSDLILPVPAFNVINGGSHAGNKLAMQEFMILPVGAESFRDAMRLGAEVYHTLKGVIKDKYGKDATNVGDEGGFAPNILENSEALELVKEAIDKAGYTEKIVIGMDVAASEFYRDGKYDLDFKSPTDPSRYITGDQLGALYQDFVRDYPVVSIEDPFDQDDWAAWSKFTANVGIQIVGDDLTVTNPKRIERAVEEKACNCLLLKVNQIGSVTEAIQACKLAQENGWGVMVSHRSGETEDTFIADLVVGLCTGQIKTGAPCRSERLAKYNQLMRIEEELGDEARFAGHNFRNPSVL
UniProt Q13542: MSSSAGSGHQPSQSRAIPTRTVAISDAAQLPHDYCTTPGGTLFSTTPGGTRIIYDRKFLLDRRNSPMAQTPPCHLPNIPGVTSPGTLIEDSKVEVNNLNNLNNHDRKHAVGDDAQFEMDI
UniProt Q9H223: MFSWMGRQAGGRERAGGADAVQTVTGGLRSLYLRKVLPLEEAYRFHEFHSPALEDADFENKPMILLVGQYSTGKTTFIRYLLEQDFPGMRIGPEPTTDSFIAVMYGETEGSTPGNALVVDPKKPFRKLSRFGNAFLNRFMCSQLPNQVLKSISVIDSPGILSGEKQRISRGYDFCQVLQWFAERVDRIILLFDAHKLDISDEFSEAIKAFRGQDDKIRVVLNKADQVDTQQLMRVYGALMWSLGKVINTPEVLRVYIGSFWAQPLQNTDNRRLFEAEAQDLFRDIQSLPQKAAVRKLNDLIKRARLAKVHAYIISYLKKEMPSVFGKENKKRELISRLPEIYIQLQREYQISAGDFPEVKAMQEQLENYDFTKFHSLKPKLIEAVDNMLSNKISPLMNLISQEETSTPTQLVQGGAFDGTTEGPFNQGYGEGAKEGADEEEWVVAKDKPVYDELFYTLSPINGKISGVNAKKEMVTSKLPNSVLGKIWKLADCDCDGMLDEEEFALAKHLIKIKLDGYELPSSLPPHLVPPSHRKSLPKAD
UniProt Q53HC9: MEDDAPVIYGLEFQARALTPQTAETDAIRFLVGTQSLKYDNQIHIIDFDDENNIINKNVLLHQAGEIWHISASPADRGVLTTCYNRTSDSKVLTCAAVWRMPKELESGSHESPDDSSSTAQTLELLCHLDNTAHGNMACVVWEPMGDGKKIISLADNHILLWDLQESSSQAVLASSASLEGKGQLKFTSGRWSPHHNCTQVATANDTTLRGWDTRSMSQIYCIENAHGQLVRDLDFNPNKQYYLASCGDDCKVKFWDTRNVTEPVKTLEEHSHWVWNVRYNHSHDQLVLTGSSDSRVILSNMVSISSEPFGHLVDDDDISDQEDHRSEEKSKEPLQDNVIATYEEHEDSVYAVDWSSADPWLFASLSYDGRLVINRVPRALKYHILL
UniProt Q99613, whole entry, looked up: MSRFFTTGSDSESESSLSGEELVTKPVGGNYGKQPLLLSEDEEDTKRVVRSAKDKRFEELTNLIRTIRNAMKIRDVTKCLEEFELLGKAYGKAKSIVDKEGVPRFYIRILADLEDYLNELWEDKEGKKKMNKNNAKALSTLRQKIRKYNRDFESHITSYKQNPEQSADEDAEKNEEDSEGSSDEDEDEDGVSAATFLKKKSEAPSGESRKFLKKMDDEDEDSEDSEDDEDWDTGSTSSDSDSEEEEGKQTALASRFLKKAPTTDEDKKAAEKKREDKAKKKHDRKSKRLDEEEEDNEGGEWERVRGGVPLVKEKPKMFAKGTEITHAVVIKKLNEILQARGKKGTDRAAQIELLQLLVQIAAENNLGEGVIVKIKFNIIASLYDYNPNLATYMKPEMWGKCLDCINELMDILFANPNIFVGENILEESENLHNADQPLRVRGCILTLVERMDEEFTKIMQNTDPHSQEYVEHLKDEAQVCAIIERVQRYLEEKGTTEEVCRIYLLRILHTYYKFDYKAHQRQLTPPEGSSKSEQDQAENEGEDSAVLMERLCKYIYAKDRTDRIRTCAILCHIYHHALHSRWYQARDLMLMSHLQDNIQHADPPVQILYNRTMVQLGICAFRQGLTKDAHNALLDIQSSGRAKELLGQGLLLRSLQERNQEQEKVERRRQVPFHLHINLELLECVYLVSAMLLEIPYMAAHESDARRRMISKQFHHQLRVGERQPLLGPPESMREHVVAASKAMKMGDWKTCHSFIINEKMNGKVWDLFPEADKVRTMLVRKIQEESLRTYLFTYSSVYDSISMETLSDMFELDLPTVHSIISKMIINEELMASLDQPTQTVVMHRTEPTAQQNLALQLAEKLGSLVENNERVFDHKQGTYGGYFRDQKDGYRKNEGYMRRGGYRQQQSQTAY
UniProt P60228, whole entry, looked up: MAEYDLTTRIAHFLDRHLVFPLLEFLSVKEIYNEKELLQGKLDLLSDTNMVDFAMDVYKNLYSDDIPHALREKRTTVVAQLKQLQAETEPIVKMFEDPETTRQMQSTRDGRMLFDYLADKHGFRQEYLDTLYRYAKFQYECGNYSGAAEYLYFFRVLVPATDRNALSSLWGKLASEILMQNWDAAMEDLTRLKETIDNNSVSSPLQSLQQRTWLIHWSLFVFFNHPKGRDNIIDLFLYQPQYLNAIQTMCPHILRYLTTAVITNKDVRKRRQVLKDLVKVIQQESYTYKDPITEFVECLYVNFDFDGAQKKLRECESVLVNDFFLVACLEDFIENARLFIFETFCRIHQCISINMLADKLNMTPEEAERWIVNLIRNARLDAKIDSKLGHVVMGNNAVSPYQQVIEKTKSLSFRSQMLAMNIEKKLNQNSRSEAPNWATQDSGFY
UniProt Q13541: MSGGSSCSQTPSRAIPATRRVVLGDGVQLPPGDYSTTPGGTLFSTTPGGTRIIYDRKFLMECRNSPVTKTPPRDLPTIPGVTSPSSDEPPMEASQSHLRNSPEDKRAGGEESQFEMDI
UniProt Q8TE02: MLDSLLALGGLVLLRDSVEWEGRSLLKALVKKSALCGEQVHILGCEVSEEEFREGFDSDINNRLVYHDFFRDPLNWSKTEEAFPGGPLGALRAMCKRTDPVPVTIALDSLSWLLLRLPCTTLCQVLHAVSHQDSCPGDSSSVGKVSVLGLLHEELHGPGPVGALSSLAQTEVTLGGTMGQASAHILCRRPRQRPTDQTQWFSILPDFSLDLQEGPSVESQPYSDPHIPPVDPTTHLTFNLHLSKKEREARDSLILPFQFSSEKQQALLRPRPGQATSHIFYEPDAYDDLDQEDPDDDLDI
UniProt Q14152, whole entry, looked up: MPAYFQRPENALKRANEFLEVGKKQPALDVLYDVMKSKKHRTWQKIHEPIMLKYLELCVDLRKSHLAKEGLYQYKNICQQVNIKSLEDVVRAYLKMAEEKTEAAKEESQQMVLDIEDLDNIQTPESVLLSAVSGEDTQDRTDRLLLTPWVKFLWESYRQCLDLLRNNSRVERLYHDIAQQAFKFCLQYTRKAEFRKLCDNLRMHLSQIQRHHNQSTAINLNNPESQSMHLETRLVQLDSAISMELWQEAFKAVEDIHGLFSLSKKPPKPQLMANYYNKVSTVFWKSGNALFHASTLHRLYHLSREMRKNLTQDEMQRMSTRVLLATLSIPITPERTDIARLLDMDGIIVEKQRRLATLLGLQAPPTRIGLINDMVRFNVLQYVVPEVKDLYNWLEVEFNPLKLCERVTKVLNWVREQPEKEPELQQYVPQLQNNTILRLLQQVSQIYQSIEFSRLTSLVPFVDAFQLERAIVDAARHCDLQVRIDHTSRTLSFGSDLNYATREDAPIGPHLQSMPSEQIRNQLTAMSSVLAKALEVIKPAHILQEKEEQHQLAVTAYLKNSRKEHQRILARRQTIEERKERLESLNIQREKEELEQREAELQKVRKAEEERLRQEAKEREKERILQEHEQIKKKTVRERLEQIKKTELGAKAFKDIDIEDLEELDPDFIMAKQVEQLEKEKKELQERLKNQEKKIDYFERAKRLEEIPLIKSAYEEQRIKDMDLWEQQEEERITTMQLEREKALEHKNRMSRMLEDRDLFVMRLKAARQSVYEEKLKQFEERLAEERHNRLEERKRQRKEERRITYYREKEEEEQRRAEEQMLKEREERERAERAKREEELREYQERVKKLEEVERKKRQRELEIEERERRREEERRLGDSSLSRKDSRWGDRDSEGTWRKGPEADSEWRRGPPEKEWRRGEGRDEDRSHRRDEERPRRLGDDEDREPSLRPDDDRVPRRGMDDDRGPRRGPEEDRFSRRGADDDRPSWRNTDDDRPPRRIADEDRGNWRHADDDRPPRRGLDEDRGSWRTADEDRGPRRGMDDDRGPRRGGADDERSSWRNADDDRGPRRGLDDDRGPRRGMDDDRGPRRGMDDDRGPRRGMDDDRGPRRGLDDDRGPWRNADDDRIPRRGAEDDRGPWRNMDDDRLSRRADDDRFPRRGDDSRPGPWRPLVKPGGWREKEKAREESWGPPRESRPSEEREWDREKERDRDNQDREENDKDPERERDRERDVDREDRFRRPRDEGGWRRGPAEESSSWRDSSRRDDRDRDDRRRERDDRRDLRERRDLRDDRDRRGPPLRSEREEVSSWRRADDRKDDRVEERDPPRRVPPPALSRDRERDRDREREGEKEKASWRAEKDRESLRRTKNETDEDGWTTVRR
UniProt Q9BQ52: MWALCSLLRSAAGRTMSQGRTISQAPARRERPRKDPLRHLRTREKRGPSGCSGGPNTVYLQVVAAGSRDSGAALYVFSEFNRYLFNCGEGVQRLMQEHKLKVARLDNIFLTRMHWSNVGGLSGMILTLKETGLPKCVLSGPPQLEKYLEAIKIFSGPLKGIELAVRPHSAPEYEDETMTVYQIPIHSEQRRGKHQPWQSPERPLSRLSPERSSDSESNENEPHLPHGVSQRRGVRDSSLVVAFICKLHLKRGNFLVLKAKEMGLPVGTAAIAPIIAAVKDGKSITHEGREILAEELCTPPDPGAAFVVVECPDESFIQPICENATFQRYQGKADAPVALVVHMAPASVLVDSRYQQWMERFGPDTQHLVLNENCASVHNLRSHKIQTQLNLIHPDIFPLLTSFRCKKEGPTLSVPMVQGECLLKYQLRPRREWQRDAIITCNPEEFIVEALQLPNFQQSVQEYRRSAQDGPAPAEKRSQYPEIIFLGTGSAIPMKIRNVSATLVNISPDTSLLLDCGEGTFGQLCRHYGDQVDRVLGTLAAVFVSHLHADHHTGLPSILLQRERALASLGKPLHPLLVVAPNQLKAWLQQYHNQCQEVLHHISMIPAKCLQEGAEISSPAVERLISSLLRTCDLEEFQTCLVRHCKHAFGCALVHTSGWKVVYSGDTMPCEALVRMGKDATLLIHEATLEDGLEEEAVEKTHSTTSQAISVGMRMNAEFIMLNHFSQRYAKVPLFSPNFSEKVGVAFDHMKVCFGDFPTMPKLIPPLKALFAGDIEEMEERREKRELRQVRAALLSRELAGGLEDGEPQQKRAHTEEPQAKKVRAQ

compound: Cc1cc(Nc2cc(N3CCN(C)CC3)nc(Sc3ccc(NC(=O)C4CC4)cc3)n2)n[nH]1 [tozasertib]; assay: log2 fold change, soluble protein after heating vs DMSO (PISA); higher = thermal stabilisation; K562 cells, 10 uM, 30 min; active = over 0.2 and 3.5 SD of the protein, either way, in both replicates (recomputed)
Outline: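 K562 cells at 2×10^6 cells/mL were exposed to 10 μM compound for 30 min, then aliquots were heated for 3 min across 48°C-58°C, pooled, and extracted in PBS containing 0.5% NP-40 at 4°C. The supernatant after 21,000xg for 90 min was taken as soluble protein and measured by TMTpro 16plex LC-MS/MS with channel sums equalised. Thermal stability is reported relative to control samples, with values from duplicates. Fold changes are given on a log2 scale.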

log2 fold change, inactive:
EIF2D (UniProt P41214) -0.008
EMC2 (UniProt Q15006) 0.041
EHMT2 (UniProt Q96KQ7) 0.088
ENDOG (UniProt Q14249) -0.039
EIF4G2 (UniProt P78344) 0.032
EIF2B1 (UniProt Q14232) -0.002
EEF1A2 (UniProt Q05639) -0.025
ENOPH1 (UniProt Q9UHY7) 0.044
EIF4ENIF1 isoform 3 (UniProt Q9NRA8) 0.011
ENO2 (UniProt P09104) -0.008
EIF4EBP2 (UniProt Q13542) 0.091
EFTUD2 (UniProt Q15029) -0.015
EIF5B (UniProt O60841) 0.038
EHD4 (UniProt Q9H223) -0.005
EIPR1 (UniProt Q53HC9) 0.042
EI24 (UniProt O14681) -0.034
EIF3C (UniProt Q99613) 0.076
EIF3E (UniProt P60228) 0.046
EIF3L (UniProt Q9Y262) -0.012
EMC4 (UniProt Q5J8M3) 0.007
EIF4EBP1 (UniProt Q13541) 0.017
ELP5 isoform 4 (UniProt Q8TE02) -0.063
EIF5 (UniProt P55010) 0.008
ENGASE (UniProt Q8NFI3) 0.027
EEFSEC (UniProt P57772) 0.001
EEF2 (UniProt P13639) -0.027
EIF3F (UniProt O00303) 0.108
EIF3A (UniProt Q14152) 0.069
ELAC2 (UniProt Q9BQ52) -0.001
EFHD2 (UniProt Q96C19) 0.084
EIF3H (UniProt O15372) 0.032
ELOB (UniProt Q15370) 0.01
EIF1AD (UniProt Q8N9N8) -0.029

Random excerpt: two records from the list, in no set order.
log2 fold change, inactive:
EEFSEC (UniProt P57772) 0.001
EMC4 (UniProt Q5J8M3) 0.007
